This is one part of the list. The exact form of the protein is not confirmed.

The assay addresses T1, ETV4 (UniProt P43268).
T1 sequence: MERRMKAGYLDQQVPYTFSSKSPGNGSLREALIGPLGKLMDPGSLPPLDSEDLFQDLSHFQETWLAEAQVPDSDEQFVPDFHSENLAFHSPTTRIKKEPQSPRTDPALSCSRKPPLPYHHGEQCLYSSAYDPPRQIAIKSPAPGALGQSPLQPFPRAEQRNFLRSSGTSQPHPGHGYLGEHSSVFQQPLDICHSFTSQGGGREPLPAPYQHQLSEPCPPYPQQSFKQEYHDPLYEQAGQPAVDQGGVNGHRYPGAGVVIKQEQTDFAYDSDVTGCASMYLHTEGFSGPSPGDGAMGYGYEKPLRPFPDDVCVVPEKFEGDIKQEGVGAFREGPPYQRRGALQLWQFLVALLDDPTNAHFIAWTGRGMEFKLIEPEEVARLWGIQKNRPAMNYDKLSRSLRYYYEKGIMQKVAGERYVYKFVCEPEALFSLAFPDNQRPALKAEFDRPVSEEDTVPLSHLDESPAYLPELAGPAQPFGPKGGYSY
Briefly: DAPPL (digital affinity profiling via proximity ligation, sequencing). As to conditions: 10 mM Tris-HCl pH 7.5, 50 mM NaCl, 1 mM DTT, 4% glycerol, room temperature, 30 min; GST-TFs on glutathione beads, 16-mer random dsDNA library, 0.1% …; high values mean tight binding; double strand, one strand shown; scale: fold enrichment (6-mer frequency, TF over GST control).
Sequence CTCCGC displayed a binding signal of 1.58. In the case of TCTCGG it was 1.43; in that of AAATAT, 1.26; in that of CTGATC, 1.44. TTTGCG had a binding signal of 1.26.

Consider TTCATC, for which the binding signal is 1.25. TGGCAG displayed a binding signal of 1.14. In the case of TATCGT it was 1.15; in that of TTTTGT, 1.3. As to GACCTC, the binding signal is 1.54. TGTCCA registered a binding signal of 1.1. To TGCTAA belongs 1.22. In the case of CCGTCC it was 1.29; in that of TCCTCA, 1.51. To ATTCGT belongs 1.2; to TTGAAC, 1.1; to CAATCC, 1.23. TGGTGT yielded a binding signal of 1.23. In the case of TCTTGA it was 1.29; in that of GCTTAT, 1.24.

As to TTGTGG, the binding signal is 1.35.

As to TTAGGG, the binding signal was found to be 1.09. GTTACG: the binding signal is 1.02.

Sequence GGGCCT yielded a binding signal of 1.36. The sequence ATTTCT showed a binding signal of 1.45. In the case of TTGTCC it was 1.39; in that of TTTTAA, 1.22; in that of ATTGCC, 1.31. To ATCTCC belongs 1.62; to GATGCT, 1.21. With AGAAAT, the binding signal was 1.04. To TACTAA belongs 1.26; to TCCTTG, 1.25; to TTGCGG, 1.35.

In turn, GTCTTC gave a binding signal of 1.33.

As to ATACCC, the binding signal turned out to be 1.18.

TCGTTC had a binding signal of 1.28. To CAACAA belongs 1.05; to ACTTAA, 1.11.

Source of the values: publication PMC7862700.
